From article PMC6531784, “Discovering metabolic disease gene interactions by correlated effects on cellular morphology” (Molecular Metabolism, 2019)
No constants are given. Whether binding was seen depends on the method and setting. Binding seen in cells or lysates may run through a third protein. Binding calls can cover weak binding; strength is not graded here. Where a sequence is shown, tags or fusion partners need not be part of it.

Target: T1, FLAG-perilipin (in HEK293 cells) (UniProt O60240)
T1 sequence: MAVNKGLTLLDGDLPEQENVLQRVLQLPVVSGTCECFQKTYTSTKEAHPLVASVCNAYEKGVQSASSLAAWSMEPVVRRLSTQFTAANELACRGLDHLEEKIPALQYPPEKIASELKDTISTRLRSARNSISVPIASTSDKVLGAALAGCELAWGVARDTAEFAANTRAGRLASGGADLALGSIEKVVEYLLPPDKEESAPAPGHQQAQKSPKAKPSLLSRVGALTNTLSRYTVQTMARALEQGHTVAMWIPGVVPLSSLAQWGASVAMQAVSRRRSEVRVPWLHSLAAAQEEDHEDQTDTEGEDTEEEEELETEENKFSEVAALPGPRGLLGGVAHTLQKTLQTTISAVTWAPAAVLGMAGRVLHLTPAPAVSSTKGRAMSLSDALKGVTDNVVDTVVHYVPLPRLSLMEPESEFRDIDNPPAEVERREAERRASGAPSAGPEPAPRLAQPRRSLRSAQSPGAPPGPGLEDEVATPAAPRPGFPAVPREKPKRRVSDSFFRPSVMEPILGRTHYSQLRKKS
Assay: co-IP; HEK293 cells co-transfected; lysis in 50 mM n-octyl-b-D-glucopyranoside, 50 mM Tris pH 6.8, 150 mM NaCl, 1 mM EDTA; anti-FLAG-agarose 2 h at 4 °C, elution with 3xFLAG peptide; blots for Myc, FLAG and calnexin

Substance | binding
Myc-seipin mutant lacking the N terminus (ΔNT) (domain or fragment) | binds
Myc-seipin mutant lacking the C terminus (ΔCT) (domain or fragment) | binds
